Data on 25 substances can be found in US20090275730A1 (priority 2004, published 2009).

A short description of this data set: general procedure: solution-phase peptide synthesis; EDC-HCl/HOBt; DCC/HOBt; DCC/HOSu for active esters.

The star is where a group is joined. Cbz = O=C(OCc1ccccc1)*; Boc = CC(C)(C)OC(=O)*

Take “Boc-(Gly1-Val^2-Gly^3-Hmb^4-Ala^5-Pro^6 )2-OBzl”: the step yield (coupling step) is reported as 75.8%.

The substance “Boc-(Gly1-Val^2-Gly^3-Hmb^4-Ala^5-Pro^6)6-OBzl” yielded a step yield (coupling step) of 33%.

In the case of “Boc-(Gly^1-Val^2-Gly^3-Hmb^4-Ala^5-Pro^6 )3-OBzl”, the step yield (coupling step) was 80%.

For the setting “coupling step”, “Boc-(Gly^1-Val^2-Gly^3-Hmb^4-Ala^5-Pro^6)4-OBzl” registered a step yield of 77%.

Where the note is “coupling step”, “Boc-(Gly^1-Val^2-Gly^3-Hmb^4-Ala^5-Pro^6)5-OBzl” gave a step yield of 67%.

The substance Boc-Gly-Hmb-Ala-Pro-OBzl came in with a step yield (coupling step) of 54.9%.

Under “late stage modification step”, Boc-Gly-Ile-Gly-Hmb-Pro-OSu had a step yield of 79.9%.

Under “coupling step”, Boc-Gly-Thr-Gly-Hmb-Pro-OBzl showed a step yield of 75%.

For Boc-Gly-Thr-Gly-Hmb-Pro-OH, the step yield (late stage modification step) came out at 86%.

Turning to Boc-Gly-Val-Gly-Hmb-Pro-OBzl, for the setting “coupling step”, the step yield was 34%.

Boc-Gly-Val-Gly-Hmb-Pro-OH: the step yield (late stage modification step) is on record as 86%.

In turn, Boc-Gly-Val-Gly-Hmb-Pro-OSu displayed a step yield (late stage modification step) of 89%.

For the setting “coupling step”, Boc-Gly^1-Ile^2-Gly^3-Hmb^4-Pro^5-OBzl showed a step yield of 58.1%.

Under “late stage modification step”, “Boc-Gly^1-Lys(Z)^2-Gly^3-Val^4-Ala^5-Pro^6-OH (SEQ ID NO: 7)” had a step yield of 84%.

“Boc-Gly^1-Lys(Z)^2-Gly^3-Val^4-Ala^5-Pro^6-OMe (SEQ ID NO: 5)” gave a step yield (coupling step) of 65%.

“Boc-Gly^1-Lys(Z)^2-Gly^3-Val^4-Ala^5-Pro^6-OSu (SEQ ID NO: 8)” showed a step yield (late stage modification step) of 80%.

Regarding “Boc-Gly^1-Val^2-Gly^3-Hmb^4-Ala^5-Pro^6-OBzl”, for the setting “coupling step”, the step yield turned out to be 40%.

For the substance “Boc-Gly^1-Val^2-Gly^3-Hmb^4-Ala^5-Pro^6-OH”, where the note is “late stage modification step”, the step yield turned out to be 93%.

Substance “Boc-Gly^1-Val^2-Gly^3-Hmb^4-Ala^5-Pro^6-OSu” gave a step yield (late stage modification step) of 80%.

Turning to Boc-Ile-Gly-Hmb-Pro-OBzl, the step yield (coupling step) turned out to be 92.0%.

Consider Boc-K(Cbz)GVAP-OMe (SEQ ID NO: 3), for which the step yield (coupling step) is 65%.

Where the note is “coupling step”, Boc-Thr-Gly-Hmb-Pro-OBzl returned a step yield of 38%.

Boc-Val-Gly-Hmb-Ala-Pro-OBzl gave a step yield (coupling step) of 77.1%.

Substance Boc-Val-Gly-Hmb-Pro-OBzl yielded a step yield (coupling step) of 93%.

Turning to “TFA·H-Gly^1-Val^2-Gly^3-Hmb^4-Ala^5-Pro^6-OSu”, the step yield (late stage modification step) came to 89%.
